Experiment [1] has as its target T1, AtSPL5 ZnF domain (residues 60-124) (Arabidopsis thaliana) (UniProt Q9S758).
T1 sequence: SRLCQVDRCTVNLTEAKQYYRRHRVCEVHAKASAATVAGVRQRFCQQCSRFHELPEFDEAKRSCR
The experiment in a line: crystal structure; sitting-drop vapor diffusion, 18 °C; complexes purified by gel filtration; both purified. A general note: In gel filtration, larger molecules generally elute earlier.

Experiment [2] addresses T2, AtSPL13 ZnF domain (residues 98-162) (Arabidopsis thaliana) (UniProt B9DI20).
T2 sequence: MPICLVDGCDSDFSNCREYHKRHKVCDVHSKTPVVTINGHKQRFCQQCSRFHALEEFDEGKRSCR
The experiment is described as above.

In experiment [3] the target is T1, AtSPL5 ZnF domain (residues 60-124) (Arabidopsis thaliana). Put plainly: SEC; Superdex 75 Increase 10/300, 20 mM Tris-HCl pH 7.5, 150 mM NaCl, 1 mM DTT; peak fractions on SDS-PAGE; both purified.
Experiment [4] concerns the target GST-tagged OY-M SAP05 (onion yellows phytoplasma (OY-M; Candidatus Phytoplasma asteris)). Put plainly: pull-down; about 200 μg purified GST-fused protein on GST beads, equal amount of target protein, 1 h, 4 °C; 20 mM Tris-HCl, 400 mM NaCl; glutathione elution, Coomassie staining; both purified.

These are yes or no findings as the source states them, for the method shown. Binding calls can cover weak binding; strength is not graded here.

For the molecule “OY-M SAP05 (residues 33-135) (domain or fragment)”, the binding entry in experiment [1], in experiment [2] and in experiment [3] was “binds” each time.

B1: AtSPL5 ZnF domain (residues 60-124) (domain or fragment, UniProt Q9S758 60-124)
chain: SRLCQVDRCTVNLTEAKQYYRRHRVCEVHAKASAATVAGVRQRFCQQCSRFHELPEFDEAKRSCR
As to B1, the binding result in experiment [4] was “binds”.

The record behind these values is paper PMC10850148.
